Assay results: article PMC6813494
No constants are given. Whether binding was seen depends on the method and setting.

Tests used:
Assay in all cases: two-hybrid
[1] = biological target: PslG (P. aeruginosa PAO1) (UniProt Q9I1N2)
[2] = biological target: PslA (P. aeruginosa PAO1) (UniProt Q9I1N8)
[3] = biological target: T1, PslG_(31-442) (P. aeruginosa PAO1) (UniProt Q9I1N2)
T1 sequence: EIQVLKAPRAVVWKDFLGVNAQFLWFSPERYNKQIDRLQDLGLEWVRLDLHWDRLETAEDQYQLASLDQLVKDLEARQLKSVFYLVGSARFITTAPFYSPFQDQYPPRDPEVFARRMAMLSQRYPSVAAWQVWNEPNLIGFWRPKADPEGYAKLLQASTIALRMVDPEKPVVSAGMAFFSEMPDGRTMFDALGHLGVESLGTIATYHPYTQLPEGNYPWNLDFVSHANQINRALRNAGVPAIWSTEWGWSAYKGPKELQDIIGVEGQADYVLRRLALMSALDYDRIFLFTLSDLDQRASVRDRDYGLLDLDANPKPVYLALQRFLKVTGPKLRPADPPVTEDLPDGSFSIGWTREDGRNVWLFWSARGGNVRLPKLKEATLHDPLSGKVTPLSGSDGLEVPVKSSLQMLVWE

Measured: binding

PslA (from UniProt Q9I1N8 1-478)
no binding: all assays above

PslG (from UniProt Q9I1N2 1-442)
no binding: all assays above

B1: PslG_(31-442) (domain or fragment, UniProt Q9I1N2 31-442)
chain: EIQVLKAPRAVVWKDFLGVNAQFLWFSPERYNKQIDRLQDLGLEWVRLDLHWDRLETAEDQYQLASLDQLVKDLEARQLKSVFYLVGSARFITTAPFYSPFQDQYPPRDPEVFARRMAMLSQRYPSVAAWQVWNEPNLIGFWRPKADPEGYAKLLQASTIALRMVDPEKPVVSAGMAFFSEMPDGRTMFDALGHLGVESLGTIATYHPYTQLPEGNYPWNLDFVSHANQINRALRNAGVPAIWSTEWGWSAYKGPKELQDIIGVEGQADYVLRRLALMSALDYDRIFLFTLSDLDQRASVRDRDYGLLDLDANPKPVYLALQRFLKVTGPKLRPADPPVTEDLPDGSFSIGWTREDGRNVWLFWSARGGNVRLPKLKEATLHDPLSGKVTPLSGSDGLEVPVKSSLQMLVWE
no binding: all assays above
